Measurements: PubChem BioAssay AID2685 (National Center for Advancing Translational Sciences (NCATS), 2010)
Some of the results follow. Further columns of the screen follow, without active or inactive calls. The list favours compounds with an active or inconclusive main result. Words in brackets tell the shape of the fitted curve; partial curves, single points and poor fits give uncertain potencies.

Assay: qHTS Assay for Lipid Storage Modulators in Drosophila S3 Cells;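 on cell number change: cells counted by Cell Tracker Red CMTPX staining in the red channel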
Details: BODIPY lipid droplet fluorescence, 18-24 h; for cell number change: measured here: cell count max response, cells fed with added oleic acid
Text: NIH Molecular Libraries Probe Production Centers Network [MLPCN] NIH Chemical Genomics Center [NCGC] MLPCN Grant: 1 R03 MH085686-01 Assay Submitter (PI): Beller, Mathias; Max-Planck-Institut fur Biophysikalische Chemie NCGC Assay Overview: Storing lipids as a reservoir for energy or the anabolism of elementary metabolites is a common feature of probably all cells and is conserved from bacteria to humans. The universal cellular lipid storage organelle is the so-called lipid storage droplet (LD). Although ubiquitous, LDs share a simple structure composed of a hydrophobic core that harbors the storage lipids, which is shielded by a droplet-specific phospholipid monolayer to which proteins are attached. The current model of LD biogenesis involves an incorporation of the lipid core into the membrane leaflets of the endoplasmic reticulum (ER) followed by a subsequent budding-like maturation of a LD, which ultimately pinches off. Once released, LD volume can increase by localized lipogenesis or fusion of existing droplet. Storage lipids are re-mobilized enzymatically by lipase activity. Lipase regulation in the adipocyte is heavily studied and involves multiple components including catecholamine signaling, the LD-associated proteins Perilipin and comparative gene identification (CGI-58) and at least two lipases named hormone sensitive lipase (HSL) and adipocyte triglyceride lipase (ATGL). LD regulation outside of the adipocyte is poorly understood and only few components are known. However, there is an urgent need to learn more about ectopic fat depots as mislocalized storage of lipids, for example in the liver or muscle, is an eminent health problem associated with insulin resistance or the metabolic syndrome. We developed a laser-scanning cytometer assay to enable 1,536-well screening and combined the results of the small molecules screen with an RNAi database based on lipid storage.
Triacsin C (Sigma-Aldrich T-4540), an inhibitor of long-chain fatty acyl CoA synthetase that blocks synthesis of triglycerides, was used as a positive control for lipid under-storage. A total of 23 nL of compound solution of different concentrations were transferred to the assay plates using a Kalypsys pin tool equipped with a 1,536-pin array containing 10-nL slotted pins (FP1S10, 0.457-mm diameter, 50.8 mm long; V&P Scientific). One microliter of oleic acid (400 uM) was added, and the plate was lidded with stainless steel rubber gasket lined lids containing pinholes. […] Fluorescence was detected by excitation of the fluorophores with a 488-nm laser on an Acumen Explorer (TTP Lab Tech). The total intensity in channel 2 (500-530 nm) reflected lipid droplet accumulation. Cells were detected using channel 3 (575-640 nm) with 5-um width and 100-um depth filters. The ratio of the number of objects in PMT channel 2 over the number of objects in PMT channel 3 was also calculated. Percent activity was computed relative to an internal control (100% inhibited lipid droplet deposition due to the presence of 20 uM Triacsin C), which was added to 32 wells/plate.

[1] = measured here: cell number channel AC50, cells fed with added oleic acid
[2] = measured here: lipid fluorescence (Fed channel) AC50, cells fed with added oleic acid

SMILES	cell number change [%]	AC50 [1]	AC50 [2]
Cc1nc(-c2nnc(SCC(=O)Nc3cc(C(F)(F)F)cc(C(F)(F)F)c3)n2C)cs1	-7.88	–	–
COc1ccc(N(CC(=O)NCCSc2ccccn2)S(=O)(=O)c2ccccc2)cc1Cl	-44.9	13 µM [falling, partial curve, poor fit]	–
CCn1cnnc1SCC(=O)c1c(N)n(C2CC2)c(=O)[nH]c1=O	6.03	–	1.46 µM [rising, partial curve, poor fit]
O=C(N/N=C/C(Br)=C/c1ccccc1)c1n[nH]c2c1CCC2	-4.96	–	–
COc1cc(OC)c(NC(=O)CC(C)=O)cc1Cl	-21.5	–	2.31 µM [falling, full curve]
Cc1ccc(OCC(=O)OCC(=O)N2c3ccccc3CC2C)cc1C (stereo not drawn)	-7.9	–	–
CC[C@H](C)[C@H](NS(=O)(=O)c1ccc(C)cc1)C(=O)N1CCC(C(=O)N[C@H](C(=O)O)C(C)C)CC1	30.7	29.1 µM [rising, single point]	0.651 µM [falling, full curve, poor fit]
O=C(NNC(=O)C1C2C=CC(C2)C1C(=O)O)c1ccccc1O (stereo not drawn)	4.27	–	20.6 µM [rising, partial curve]
Cc1noc(NS(=O)(=O)c2ccc(NC(=O)c3nn(-c4ccccc4)ccc3=O)cc2)c1C	-8.5	–	29.1 µM [falling, single point]
N#Cc1nc(COc2ccccc2Cl)oc1NCc1cccnc1	-31.9	0.259 µM [falling, full curve, poor fit]	–
O=C(CSc1nnc(-c2ccncc2)o1)Nc1cc(F)ccc1F	6.97	–	2.91 µM [rising, partial curve]
COC(=O)c1ccc2nc(NC(=O)CCS(=O)(=O)c3ccccc3)sc2c1	37.5	25.9 µM [rising, single point]	–
COCC(=O)N(Cc1ccccc1)c1ccccn1	-25.7	0.651 µM [falling, full curve, poor fit]	3.26 µM [falling, full curve]
COc1ccccc1-n1c(C)nnc1SCC(=O)Nc1cccc(C(C)=O)c1	60.9	4.11 µM [rising, full curve]	0.326 µM [rising, full curve]
CCN(C(=O)C1CCN(S(=O)(=O)c2cccc3nonc23)CC1)c1ccccc1	-31.2	2.06 µM [falling, full curve, poor fit]	0.0231 µM [falling, full curve]
COc1ccc(CNC(=O)CCCC(=O)Nc2cccc(Br)c2)cc1	-25.8	–	–
COc1cccc2cc(C(=O)Nc3ccc(F)cc3)c(=Nc3ccc(C(=O)O)cc3)oc12	-49	13 µM [falling, partial curve, poor fit]	9.2 µM [falling, partial curve]
COc1cc(SC)ccc1C(=O)Nc1cccc(S(=O)(=O)NC2=NCCCCC2)c1	56.5	–	–
NC(=O)CCc1nc2cc(C(F)(F)F)ccc2n(Cc2ccccc2)c1=O	19.3	–	0.206 µM [rising, single point]
O=c1[nH]cnc2c1C(c1ccc(Cl)cc1)c1c(nc[nH]c1=O)O2	-19.8	0.0731 µM [falling, full curve, poor fit]	16.4 µM [rising, partial curve]

At a glance, part of the list above:
SMILES	cell number change [%]	AC50 [1]	AC50 [2]
Cc1ccc(OCC(=O)OCC(=O)N2c3ccccc3CC2C)cc1C (stereo not drawn)	-7.9	–	–
CC[C@H](C)[C@H](NS(=O)(=O)c1ccc(C)cc1)C(=O)N1CCC(C(=O)N[C@H](C(=O)O)C(C)C)CC1	30.7	29.1 µM [rising, single point]	0.651 µM [falling, full curve, poor fit]
O=C(NNC(=O)C1C2C=CC(C2)C1C(=O)O)c1ccccc1O (stereo not drawn)	4.27	–	20.6 µM [rising, partial curve]

Further compounds.

SMILES	cell number change [%]	AC50 [1]	AC50 [2]
Cc1csc(SCC(=O)Nc2nccs2)n1	17.9	–	–
Cc1ccccc1/C=C\c1nc2ccccc2c(=O)n1Cc1ccccc1	18.1	–	3.66 µM [rising, full curve]
CC(=O)Oc1ccc(C(c2ccc(OC(C)=O)cc2)c2ccccn2)cc1	23.3	–	16.4 µM [rising, partial curve]
COc1cccc2c1cc1c(=O)n(CC(=O)NCCCN3CCCCC3)nc(C)n12	-13.7	–	–
O=C(Nc1ccc2c(c1)oc1ccccc12)c1cccnc1	–	0.164 µM [rising, full curve, poor fit]	29.1 µM [rising, single point]
COCCN(C(=O)Cn1nnc2ccccc21)C(C(=O)NC1CCCCC1)c1ccc(OC)cc1OC (stereo not drawn)	-40.4	18.4 µM [falling, partial curve]	18.4 µM [falling, partial curve]
CNC(=O)c1ccsc1NC(=O)c1sc2ccccc2c1Cl	–	–	0.461 µM [rising, full curve, poor fit]
Cc1c(CN2CCN(C)C(CCO)C2)[nH]c2c(Cl)cccc12 (stereo not drawn)	19.2	–	5.17 µM [rising, full curve]
Cc1ccccc1NC(=O)Cn1c(C)nc2ccc(NC(=O)C3CC3)cc2c1=O	-25.7	2.06 µM [falling, full curve, poor fit]	–
O=C(NCCOc1cccnc1)c1ccc(OC2CCN(Cc3ccccn3)CC2)cc1	2.35	–	0.0058 µM [falling, full curve, poor fit]
CCOC(=O)c1c(NC(=O)CN2CCC(C)CC2)sc(C)c1C	108	–	–
CCOCCCNS(=O)(=O)c1cc(Br)cc2c1N(C(=O)C1CC1)CC2	33.1	25.9 µM [rising, single point]	–
O=C(c1cccc(OC2CCN(Cc3cc(F)cc(F)c3)CC2)c1)N1CCCC1	-3.98	–	–
N/C(=N\OC(=O)Cc1ccc(-c2ccccc2)cc1)c1ccncc1	7.26	–	0.103 µM [falling, full curve, poor fit]
C/C(Cc1ccccc1)=N\NC(=O)CNC(=O)c1ccccc1Br	8.7	–	29.1 µM [rising, single point]
CS/C(=N\S(=O)(=O)c1ccccc1)c1ccccc1	-7.26	2.91 µM [rising, single point]	–
COc1ccc(NC(=O)CN(C)C(=O)c2cccc(S(=O)(=O)N3CCCc4ccccc43)c2)cc1	–	6.51 µM [rising, single point]	–
O=C(Cc1cccs1)N1CCN(c2ccccn2)CC1	1.95	–	–
O=C(NC12CC3CC(CC(C3)C1)C2)N1CCC(n2nnc3ccccc32)CC1	32.6	1.84 µM [rising, single point]	–
